Data taken from the supplement of paper PMC11006884.
The entries are a selection whose mix differs from that of the whole data set.

Amino acid sequences for entries named in this document (tags omitted). A change or cut given only in a name is not applied to a line headed by its entry.
UniProt Q13418: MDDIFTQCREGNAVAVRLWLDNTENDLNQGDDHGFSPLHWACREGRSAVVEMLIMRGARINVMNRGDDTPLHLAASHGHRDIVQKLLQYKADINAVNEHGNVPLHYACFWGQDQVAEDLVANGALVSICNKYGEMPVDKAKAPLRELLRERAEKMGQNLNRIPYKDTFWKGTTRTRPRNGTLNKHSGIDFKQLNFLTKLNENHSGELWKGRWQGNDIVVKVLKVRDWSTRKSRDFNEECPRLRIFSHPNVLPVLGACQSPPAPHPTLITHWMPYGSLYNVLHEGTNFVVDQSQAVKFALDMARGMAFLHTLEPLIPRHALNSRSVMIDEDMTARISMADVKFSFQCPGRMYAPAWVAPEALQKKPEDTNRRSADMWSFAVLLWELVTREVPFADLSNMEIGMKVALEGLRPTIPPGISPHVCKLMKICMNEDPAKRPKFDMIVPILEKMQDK
UniProt Q02952: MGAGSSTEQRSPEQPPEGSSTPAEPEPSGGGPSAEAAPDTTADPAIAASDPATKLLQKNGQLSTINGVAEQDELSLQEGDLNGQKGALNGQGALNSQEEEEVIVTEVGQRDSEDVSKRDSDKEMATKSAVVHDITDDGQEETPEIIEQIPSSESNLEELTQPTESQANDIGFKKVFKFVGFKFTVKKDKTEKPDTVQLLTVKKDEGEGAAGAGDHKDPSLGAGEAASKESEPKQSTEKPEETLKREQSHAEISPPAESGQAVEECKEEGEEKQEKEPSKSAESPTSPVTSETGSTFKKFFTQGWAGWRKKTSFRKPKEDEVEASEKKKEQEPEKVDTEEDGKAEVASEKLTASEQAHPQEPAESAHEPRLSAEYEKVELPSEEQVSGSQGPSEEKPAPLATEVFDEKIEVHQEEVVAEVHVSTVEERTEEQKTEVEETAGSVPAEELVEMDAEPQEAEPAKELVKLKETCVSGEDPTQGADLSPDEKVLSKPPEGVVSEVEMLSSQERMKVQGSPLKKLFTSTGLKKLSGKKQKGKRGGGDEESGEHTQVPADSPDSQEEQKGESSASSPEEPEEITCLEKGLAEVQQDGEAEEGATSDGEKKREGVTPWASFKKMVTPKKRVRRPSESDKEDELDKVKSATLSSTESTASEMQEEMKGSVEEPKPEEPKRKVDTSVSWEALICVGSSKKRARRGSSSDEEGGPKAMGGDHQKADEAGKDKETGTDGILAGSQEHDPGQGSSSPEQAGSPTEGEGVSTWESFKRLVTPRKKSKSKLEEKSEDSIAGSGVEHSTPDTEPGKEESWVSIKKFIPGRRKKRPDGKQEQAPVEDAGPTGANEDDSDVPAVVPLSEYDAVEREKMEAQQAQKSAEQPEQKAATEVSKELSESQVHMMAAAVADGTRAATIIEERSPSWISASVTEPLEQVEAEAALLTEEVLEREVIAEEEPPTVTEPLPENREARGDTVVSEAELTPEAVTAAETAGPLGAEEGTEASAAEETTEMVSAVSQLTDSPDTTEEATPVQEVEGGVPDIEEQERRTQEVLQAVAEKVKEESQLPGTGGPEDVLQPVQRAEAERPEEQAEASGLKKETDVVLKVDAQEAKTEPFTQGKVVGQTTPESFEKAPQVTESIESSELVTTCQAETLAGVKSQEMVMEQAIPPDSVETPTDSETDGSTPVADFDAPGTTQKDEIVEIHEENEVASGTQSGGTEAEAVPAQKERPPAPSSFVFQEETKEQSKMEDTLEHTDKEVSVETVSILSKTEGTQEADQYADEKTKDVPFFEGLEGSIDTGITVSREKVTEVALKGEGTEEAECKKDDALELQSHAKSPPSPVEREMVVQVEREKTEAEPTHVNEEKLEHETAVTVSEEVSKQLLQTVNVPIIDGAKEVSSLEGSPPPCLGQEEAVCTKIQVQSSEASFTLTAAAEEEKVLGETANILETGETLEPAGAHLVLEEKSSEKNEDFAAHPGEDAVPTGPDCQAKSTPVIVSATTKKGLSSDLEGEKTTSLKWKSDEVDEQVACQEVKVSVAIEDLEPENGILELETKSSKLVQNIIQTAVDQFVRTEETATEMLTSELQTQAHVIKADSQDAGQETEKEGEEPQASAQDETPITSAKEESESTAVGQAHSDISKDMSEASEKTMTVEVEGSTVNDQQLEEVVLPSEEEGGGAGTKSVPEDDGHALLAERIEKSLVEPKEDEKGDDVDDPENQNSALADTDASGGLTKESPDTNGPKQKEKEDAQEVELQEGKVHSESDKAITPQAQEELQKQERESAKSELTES
UniProt Q12789: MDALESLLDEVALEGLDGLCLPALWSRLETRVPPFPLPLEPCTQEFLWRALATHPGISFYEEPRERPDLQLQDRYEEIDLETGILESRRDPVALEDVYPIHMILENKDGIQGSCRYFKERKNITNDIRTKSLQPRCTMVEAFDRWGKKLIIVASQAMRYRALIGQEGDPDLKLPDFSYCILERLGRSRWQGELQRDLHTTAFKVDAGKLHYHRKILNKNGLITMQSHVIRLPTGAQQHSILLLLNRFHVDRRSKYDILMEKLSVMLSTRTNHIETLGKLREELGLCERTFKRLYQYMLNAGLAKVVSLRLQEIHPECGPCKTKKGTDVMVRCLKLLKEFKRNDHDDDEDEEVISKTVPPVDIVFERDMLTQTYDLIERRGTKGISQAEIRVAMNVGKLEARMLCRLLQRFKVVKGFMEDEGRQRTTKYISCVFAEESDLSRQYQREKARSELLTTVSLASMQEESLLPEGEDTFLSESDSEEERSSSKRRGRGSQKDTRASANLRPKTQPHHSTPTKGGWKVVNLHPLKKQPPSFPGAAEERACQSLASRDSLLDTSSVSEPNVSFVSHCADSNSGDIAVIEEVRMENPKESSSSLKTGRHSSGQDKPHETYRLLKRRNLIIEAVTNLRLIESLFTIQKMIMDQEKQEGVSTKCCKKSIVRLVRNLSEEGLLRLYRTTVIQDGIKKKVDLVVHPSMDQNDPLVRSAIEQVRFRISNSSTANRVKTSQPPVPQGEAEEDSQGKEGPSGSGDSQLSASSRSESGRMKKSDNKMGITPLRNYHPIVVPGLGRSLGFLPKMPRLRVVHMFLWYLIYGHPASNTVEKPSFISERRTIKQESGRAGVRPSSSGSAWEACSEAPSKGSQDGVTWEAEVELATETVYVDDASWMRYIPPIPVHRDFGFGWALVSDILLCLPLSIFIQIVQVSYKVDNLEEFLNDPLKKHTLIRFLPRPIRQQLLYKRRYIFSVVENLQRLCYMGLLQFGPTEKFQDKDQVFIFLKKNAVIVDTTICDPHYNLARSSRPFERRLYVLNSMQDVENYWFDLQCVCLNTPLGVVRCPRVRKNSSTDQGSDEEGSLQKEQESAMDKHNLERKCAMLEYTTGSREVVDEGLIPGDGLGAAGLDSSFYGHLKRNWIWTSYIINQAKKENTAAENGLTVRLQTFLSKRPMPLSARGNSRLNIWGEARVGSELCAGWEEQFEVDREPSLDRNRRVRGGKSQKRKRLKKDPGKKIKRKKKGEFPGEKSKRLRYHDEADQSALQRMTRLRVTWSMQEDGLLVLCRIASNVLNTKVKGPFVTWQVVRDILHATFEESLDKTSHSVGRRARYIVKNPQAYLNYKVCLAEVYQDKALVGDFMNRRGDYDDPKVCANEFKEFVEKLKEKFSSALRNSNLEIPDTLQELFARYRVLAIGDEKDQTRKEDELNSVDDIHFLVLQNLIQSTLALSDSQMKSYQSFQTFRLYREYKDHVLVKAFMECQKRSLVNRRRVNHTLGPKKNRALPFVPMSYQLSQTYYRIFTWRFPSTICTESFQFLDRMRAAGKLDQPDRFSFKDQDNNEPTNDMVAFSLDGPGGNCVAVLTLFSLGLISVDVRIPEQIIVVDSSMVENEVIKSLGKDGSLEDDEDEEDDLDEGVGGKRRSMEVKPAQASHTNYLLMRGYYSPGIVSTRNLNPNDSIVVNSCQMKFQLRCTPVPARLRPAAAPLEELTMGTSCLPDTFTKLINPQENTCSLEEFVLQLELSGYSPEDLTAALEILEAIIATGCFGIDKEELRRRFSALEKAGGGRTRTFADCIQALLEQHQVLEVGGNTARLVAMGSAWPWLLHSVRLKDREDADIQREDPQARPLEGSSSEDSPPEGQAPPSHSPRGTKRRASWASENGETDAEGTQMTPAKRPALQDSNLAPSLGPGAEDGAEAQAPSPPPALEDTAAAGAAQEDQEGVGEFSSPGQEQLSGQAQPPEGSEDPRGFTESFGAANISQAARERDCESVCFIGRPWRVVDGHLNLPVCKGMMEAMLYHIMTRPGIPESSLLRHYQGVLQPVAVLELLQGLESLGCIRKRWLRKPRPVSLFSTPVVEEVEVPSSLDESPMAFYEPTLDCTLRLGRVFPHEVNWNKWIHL
UniProt Q13242, whole entry, looked up: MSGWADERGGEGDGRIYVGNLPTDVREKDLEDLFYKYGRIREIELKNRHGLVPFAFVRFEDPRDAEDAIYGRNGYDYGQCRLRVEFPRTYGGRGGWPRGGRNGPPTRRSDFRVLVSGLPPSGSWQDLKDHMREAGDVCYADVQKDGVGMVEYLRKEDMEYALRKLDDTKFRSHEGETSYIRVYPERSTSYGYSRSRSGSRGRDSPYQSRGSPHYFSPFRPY
UniProt Q12888: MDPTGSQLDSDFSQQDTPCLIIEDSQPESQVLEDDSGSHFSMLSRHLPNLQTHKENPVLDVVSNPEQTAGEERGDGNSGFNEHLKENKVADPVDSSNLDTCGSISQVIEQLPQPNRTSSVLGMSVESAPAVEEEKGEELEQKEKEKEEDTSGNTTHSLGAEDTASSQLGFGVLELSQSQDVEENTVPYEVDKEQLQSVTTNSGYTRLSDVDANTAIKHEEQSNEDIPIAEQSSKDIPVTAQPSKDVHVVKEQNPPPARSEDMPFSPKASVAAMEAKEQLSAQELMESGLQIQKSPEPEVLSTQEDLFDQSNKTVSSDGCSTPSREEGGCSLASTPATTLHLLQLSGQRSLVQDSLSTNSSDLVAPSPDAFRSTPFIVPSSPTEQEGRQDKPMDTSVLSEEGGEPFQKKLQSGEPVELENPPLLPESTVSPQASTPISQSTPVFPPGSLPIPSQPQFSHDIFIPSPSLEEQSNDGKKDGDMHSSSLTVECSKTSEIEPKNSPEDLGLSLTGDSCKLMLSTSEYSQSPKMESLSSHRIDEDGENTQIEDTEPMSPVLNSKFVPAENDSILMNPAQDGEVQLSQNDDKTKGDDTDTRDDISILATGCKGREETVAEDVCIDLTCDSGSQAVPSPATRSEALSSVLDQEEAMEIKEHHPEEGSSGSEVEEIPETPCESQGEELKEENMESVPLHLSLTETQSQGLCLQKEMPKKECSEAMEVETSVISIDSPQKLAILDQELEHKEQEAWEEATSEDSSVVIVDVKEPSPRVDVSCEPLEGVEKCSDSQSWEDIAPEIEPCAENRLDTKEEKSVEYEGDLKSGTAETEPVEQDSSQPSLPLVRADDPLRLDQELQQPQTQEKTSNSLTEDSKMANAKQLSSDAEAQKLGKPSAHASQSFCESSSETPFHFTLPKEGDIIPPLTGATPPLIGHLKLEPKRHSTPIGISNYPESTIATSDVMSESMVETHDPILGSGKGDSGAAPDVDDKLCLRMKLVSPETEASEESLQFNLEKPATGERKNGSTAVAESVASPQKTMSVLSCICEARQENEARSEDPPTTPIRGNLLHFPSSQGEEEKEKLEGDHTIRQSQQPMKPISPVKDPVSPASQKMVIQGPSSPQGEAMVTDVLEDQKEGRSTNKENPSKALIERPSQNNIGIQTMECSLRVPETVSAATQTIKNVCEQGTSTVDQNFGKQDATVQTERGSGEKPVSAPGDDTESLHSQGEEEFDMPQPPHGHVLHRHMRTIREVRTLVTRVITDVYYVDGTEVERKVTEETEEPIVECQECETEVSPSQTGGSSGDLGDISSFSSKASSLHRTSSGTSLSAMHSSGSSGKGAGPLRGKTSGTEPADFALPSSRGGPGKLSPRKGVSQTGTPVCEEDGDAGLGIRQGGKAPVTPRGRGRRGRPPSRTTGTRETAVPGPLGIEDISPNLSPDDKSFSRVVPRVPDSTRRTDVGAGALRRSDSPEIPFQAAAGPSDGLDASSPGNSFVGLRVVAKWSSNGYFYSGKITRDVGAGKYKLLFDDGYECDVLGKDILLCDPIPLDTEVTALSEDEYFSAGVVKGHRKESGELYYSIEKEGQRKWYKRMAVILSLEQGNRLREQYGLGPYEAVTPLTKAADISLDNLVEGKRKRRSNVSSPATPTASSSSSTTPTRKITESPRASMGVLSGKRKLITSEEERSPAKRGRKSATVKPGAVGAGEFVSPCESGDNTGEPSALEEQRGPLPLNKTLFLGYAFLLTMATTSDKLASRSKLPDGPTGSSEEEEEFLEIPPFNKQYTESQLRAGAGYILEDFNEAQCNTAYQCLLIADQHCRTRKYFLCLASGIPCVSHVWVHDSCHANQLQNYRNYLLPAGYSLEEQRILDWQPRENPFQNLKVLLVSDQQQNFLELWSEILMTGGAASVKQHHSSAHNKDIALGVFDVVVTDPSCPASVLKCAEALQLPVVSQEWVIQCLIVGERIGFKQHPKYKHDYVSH

Compound: COC(=O)C#Cc1ccccc1 [methyl 3-phenylpropiolate]
Assay: log2 ratio of iodoacetamide-alkyne labeling of the cysteine site, DMSO over compound (competition); higher = stronger covalent engagement of the cysteine by the compound, active = 1 or more
Conditions: 500 µM; treatment time 1 h; system: HEK293T cell lysate
Outline: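 For each cysteine, the log2 competition ratio is mean control-channel reporter intensity over mean compound-channel reporter intensity. HEK293T lysate (2 mg/mL) was exposed to vehicle or electrophile (500 µM, 1 h, ambient temperature), labelled with iodoacetamide alkyne (1 h), clicked to sCIP-TMT reagents, digested overnight with trypsin at 37 °C, streptavidin-enriched and analysed by Orbitrap Eclipse LC-MS/MS with FAIMS and FragPipe. Cysteines quantified in only one of three replicates, each with duplicate channels, were excluded.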

| Target | log2 ratio of iodoacetamide-alkyne labeling |
| --- | --- |
| AHNAK C2162 (UniProt Q09666) | inactive: 0.564 |
| LGALS3BP C489 (UniProt Q08380) | active: 1.72 |
| ILK C346 (UniProt Q13418) | active: 1.8 |
| AKAP13 C683 (UniProt Q12802) | inactive: 0.255 |
| AKAP12 C1521 (UniProt Q02952) | inactive: 0.126 |
| TRIM28 C68 (UniProt Q13263) | inactive: 0.112 |
| COASY C140 (UniProt Q13057) | active: 1.16 |
| NSUN2 C758 (UniProt Q08J23) | inactive: 0.00491 |
| UniProt Q03164_C2159 | inactive: 0.49 |
| SF3A3 C274 (UniProt Q12874) | inactive: -0.0195 |
| ATM C755 (UniProt Q13315) | inactive: -0.0141 |
| POLE C2148 (UniProt Q07864) | inactive: 0.264 |
| UniProt Q12824_C147 | inactive: 0.35 |
| GTF3C1 C1977 (UniProt Q12789) | inactive: 0.746 |
| UniProt Q13242_C80 | inactive: -0.0295 |
| BPTF C20 (UniProt Q12830) | inactive: 0.165 |
| TRIM32 C23 (UniProt Q13049) | inactive: -0.174 |
| TP53BP1 C1159 (UniProt Q12888) | inactive: 0.462 |
| GTF3C1 C2046 (UniProt Q12789) | inactive: 0.297 |

Quoted from the listing for reference:

| Target | log2 ratio of iodoacetamide-alkyne labeling |
| --- | --- |
| SF3A3 C274 (UniProt Q12874) | inactive: -0.0195 |
| ATM C755 (UniProt Q13315) | inactive: -0.0141 |

Remaining list, next part:

| Target | log2 ratio of iodoacetamide-alkyne labeling |
| --- | --- |
| ILF3 C203 (UniProt Q12906) | inactive: 0.445 |
| TP53BP1 C772 (UniProt Q12888) | inactive: 0.224 |
| GTF3C1 C2089 (UniProt Q12789) | inactive: 0.156 |
| TP53BP1 C101 (UniProt Q12888) | inactive: 0.242 |
| CBX3 C69 (UniProt Q13185) | inactive: 0.193 |
| NCBP1 C36 (UniProt Q09161) | inactive: 0.318 |
| DST C7524 (UniProt Q03001) | inactive: 0.174 |
| UniProt Q12768_C21 | inactive: -0.126 |
| PMPCA C466 (UniProt Q10713) | inactive: 0.00592 |
| GLO1 C139 (UniProt Q04760) | inactive: -0.211 |
| TARDBP C244 (UniProt Q13148) | inactive: 0.441 |
| PSMD2 C251 (UniProt Q13200) | inactive: 0.0201 |
| GPS1 C175 (UniProt Q13098) | inactive: 0.322 |
| ILF3 C278 (UniProt Q12906) | inactive: -0.191 |
| LMNB2 C212 (UniProt Q03252) | inactive: 0.214 |
| UniProt Q02930_C69 | active: 1.09 |
| UniProt Q02750_C207 | inactive: 0.0374 |
| RLF C1055 (UniProt Q13129) | inactive: 0.645 |
